Like-named read-outs stand apart in the source and are kept apart here. These are yes or no findings as the source states them, for the method shown. In cells and extracts the contact can be indirect. Some binding calls cover weakened binding; strength is not graded here.
Key:
Assay in all cases: co-IP
[1] = biological target: GFP::Dicer-2^WT (Drosophila melanogaster) (UniProt A1ZAW0)
[2] = biological target: GFP::Dicer-2^Hel1 (Drosophila melanogaster) (UniProt A1ZAW0)
[3] = biological target: GFP::Dicer-2^WT (Drosophila melanogaster) (UniProt A1ZAW0); remark: listed apart in the source
[4] = biological target: GFP::Dicer-2^RNaseIII (Drosophila melanogaster) (UniProt A1ZAW0)

Sequences of proteins named here, by UniProt entry; tags and fusion partners are left off. A change or cut given only in a name is not applied to a line headed by its entry. A line that says so, or that is headed by a name, gives the form on record, which may keep a tag or linker.
UniProt A1ZAW0: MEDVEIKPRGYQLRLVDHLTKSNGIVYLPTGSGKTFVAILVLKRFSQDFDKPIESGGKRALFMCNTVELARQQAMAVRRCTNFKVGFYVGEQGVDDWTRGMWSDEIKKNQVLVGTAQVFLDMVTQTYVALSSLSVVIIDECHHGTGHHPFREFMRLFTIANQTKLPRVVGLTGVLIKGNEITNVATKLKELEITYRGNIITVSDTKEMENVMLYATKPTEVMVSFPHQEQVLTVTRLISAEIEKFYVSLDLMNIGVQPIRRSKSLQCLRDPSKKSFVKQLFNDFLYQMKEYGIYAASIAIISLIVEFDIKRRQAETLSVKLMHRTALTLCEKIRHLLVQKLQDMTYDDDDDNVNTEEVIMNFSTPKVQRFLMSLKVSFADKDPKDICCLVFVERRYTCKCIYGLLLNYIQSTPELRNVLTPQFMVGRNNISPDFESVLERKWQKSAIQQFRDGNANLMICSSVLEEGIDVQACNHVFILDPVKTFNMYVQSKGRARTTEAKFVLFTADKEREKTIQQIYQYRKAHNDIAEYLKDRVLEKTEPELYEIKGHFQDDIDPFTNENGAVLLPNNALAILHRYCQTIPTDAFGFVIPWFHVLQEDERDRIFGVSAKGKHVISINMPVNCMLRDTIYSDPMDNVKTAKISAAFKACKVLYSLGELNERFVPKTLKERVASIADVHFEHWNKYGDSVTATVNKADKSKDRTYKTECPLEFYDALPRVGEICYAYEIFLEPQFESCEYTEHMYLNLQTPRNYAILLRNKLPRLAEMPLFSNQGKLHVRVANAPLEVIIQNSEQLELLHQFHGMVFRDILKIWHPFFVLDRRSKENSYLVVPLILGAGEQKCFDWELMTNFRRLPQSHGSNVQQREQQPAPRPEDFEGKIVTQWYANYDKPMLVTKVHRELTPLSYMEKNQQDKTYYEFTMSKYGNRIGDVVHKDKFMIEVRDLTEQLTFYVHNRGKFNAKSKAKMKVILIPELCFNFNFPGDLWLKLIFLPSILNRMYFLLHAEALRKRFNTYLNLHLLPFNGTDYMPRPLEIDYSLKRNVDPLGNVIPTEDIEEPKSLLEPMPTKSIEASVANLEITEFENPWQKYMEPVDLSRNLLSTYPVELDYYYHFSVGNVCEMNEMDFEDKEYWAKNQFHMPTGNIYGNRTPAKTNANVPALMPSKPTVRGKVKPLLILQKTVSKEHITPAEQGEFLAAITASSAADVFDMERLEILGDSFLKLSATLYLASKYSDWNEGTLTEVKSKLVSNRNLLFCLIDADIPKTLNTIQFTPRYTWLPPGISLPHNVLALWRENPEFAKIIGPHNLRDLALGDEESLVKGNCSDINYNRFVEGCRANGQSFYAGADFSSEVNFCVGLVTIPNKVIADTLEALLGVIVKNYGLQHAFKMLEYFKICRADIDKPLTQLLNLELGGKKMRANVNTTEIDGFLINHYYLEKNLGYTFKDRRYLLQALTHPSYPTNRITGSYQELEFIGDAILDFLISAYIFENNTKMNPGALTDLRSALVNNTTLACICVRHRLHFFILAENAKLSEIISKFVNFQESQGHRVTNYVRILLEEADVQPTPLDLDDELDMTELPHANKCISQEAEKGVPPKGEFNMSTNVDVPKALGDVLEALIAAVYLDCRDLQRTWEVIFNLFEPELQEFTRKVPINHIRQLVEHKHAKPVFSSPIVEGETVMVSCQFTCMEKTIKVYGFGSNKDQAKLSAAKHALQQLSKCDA
GFP::Dicer-2^Hel1 (A1ZAW0, form named): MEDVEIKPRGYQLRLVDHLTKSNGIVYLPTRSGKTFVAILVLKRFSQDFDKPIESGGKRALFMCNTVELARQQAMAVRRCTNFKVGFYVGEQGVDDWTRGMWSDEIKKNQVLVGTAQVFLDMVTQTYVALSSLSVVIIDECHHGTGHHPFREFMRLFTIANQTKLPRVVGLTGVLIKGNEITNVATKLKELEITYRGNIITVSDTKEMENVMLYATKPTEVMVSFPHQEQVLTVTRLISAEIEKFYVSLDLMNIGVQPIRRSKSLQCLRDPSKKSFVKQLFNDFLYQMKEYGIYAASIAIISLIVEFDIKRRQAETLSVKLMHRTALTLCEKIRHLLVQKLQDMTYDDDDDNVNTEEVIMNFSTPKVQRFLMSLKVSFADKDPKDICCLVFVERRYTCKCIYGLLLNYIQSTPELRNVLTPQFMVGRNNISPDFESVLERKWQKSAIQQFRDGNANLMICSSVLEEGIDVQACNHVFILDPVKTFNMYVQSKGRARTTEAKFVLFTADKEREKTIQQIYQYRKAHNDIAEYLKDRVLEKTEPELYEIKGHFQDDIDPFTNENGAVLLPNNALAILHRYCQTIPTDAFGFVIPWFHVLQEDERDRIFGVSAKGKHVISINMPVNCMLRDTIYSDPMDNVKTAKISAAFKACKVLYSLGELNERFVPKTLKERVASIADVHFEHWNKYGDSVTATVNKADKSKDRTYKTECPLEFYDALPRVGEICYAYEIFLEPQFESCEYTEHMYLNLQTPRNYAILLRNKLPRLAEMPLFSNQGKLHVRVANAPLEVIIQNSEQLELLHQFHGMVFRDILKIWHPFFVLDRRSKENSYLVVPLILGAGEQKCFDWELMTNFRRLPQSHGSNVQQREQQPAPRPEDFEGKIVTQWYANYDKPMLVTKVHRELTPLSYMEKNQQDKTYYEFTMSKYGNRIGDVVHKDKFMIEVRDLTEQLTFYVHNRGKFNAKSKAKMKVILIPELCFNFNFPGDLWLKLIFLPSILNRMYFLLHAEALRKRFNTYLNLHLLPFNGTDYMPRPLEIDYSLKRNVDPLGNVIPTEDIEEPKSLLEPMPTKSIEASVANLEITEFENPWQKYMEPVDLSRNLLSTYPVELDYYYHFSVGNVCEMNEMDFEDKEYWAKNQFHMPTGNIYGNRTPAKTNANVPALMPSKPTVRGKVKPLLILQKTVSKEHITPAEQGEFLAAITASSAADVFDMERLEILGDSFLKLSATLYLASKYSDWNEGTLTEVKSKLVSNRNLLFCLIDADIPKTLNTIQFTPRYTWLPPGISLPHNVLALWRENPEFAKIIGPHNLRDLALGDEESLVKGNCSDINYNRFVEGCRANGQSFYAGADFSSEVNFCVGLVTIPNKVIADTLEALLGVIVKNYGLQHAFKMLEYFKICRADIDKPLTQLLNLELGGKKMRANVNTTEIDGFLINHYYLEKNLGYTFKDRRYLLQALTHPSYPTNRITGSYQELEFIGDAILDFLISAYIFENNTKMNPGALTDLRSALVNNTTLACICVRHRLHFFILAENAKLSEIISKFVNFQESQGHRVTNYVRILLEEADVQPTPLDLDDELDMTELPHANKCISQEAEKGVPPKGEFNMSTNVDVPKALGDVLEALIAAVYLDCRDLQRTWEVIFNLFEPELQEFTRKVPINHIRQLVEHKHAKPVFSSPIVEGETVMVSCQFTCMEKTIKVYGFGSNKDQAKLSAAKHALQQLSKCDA
GFP::Dicer-2^RNaseIII (A1ZAW0, form named): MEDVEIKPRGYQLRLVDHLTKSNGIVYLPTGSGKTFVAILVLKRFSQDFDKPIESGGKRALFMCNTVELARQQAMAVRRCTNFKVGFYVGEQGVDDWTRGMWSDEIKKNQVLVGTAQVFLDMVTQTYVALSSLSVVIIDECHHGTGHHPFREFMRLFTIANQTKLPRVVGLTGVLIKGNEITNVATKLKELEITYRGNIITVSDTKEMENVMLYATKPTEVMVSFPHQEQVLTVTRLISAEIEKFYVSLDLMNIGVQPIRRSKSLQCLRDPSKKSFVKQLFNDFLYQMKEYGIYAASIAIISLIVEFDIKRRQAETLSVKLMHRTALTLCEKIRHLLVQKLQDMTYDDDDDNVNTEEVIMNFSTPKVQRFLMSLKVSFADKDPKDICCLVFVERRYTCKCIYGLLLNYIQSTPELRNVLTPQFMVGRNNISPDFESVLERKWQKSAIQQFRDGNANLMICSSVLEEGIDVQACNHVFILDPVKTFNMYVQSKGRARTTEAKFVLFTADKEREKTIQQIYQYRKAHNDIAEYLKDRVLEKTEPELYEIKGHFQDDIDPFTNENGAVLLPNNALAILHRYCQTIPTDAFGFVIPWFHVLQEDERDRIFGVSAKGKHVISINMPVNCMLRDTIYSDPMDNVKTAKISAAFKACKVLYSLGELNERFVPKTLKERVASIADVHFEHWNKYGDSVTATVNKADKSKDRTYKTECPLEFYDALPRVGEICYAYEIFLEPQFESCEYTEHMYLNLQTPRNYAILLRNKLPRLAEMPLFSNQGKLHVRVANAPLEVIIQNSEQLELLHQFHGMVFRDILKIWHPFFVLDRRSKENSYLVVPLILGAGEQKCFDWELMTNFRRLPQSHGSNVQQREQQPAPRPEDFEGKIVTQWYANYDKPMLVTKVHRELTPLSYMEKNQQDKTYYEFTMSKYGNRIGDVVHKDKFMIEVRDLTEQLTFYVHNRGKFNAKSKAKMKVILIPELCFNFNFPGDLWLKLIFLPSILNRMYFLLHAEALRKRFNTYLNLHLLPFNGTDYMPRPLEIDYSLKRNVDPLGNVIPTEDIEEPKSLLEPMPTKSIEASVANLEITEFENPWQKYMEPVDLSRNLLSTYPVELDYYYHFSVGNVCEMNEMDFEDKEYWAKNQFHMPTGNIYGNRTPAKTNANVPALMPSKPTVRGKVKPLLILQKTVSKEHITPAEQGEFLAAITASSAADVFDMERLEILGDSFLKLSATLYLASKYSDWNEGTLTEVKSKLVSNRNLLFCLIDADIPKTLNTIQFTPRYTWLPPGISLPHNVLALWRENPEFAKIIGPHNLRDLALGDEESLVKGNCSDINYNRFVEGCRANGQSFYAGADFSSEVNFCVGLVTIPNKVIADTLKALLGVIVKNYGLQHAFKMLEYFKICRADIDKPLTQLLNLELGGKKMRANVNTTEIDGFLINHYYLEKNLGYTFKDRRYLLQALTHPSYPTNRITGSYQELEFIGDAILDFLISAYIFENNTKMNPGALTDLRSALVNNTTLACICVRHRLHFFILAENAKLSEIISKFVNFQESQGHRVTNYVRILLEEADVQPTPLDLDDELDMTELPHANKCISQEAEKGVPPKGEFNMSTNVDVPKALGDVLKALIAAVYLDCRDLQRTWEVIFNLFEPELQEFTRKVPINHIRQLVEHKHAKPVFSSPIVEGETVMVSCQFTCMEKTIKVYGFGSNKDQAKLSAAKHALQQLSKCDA

Measured: binding

B1: eIF4E1 (protein, UniProt P48598 1-259)
chain: MQSDFHRMKNFANPKSMFKTSAPSTEQGRPEPPTSAAAPAEAKDVKPKEDPQETGEPAGNTATTTAPAGDDAVRTEHLYKHPLMNVWTLWYLENDRSKSWEDMQNEITSFDTVEDFWSLYNHIKPPSEIKLGSDYSLFKKNIRPMWEDAANKQGGRWVITLNKSSKTDLDNLWLDVLLCLIGEAFDHSDQICGAVINIRGKSNKISIWTADGNNEEAALEIGHKLRDALRLGRNNSLQYQLHKDTMVKQGSNVKSIYTL
binds: all assays above

B2: Me31B (protein, UniProt P23128 1-459)
chain: MMTEKLNSGHTNLTSKGIINDLQIAGNTSDDMGWKSKLKLPPKDNRFKTTDVTDTRGNEFEEFCLKRELLMGIFEKGWERPSPIQEAAIPIALSGKDVLARAKNGTGKTGAYCIPVLEQIDPTKDYIQALVMVPTRELALQTSQICIELAKHLDIRVMVTTGGTILKDDILRIYQKVQLIIATPGRILDLMDKKVADMSHCRILVLDEADKLLSLDFQGMLDHVILKLPKDPQILLFSATFPLTVKNFMEKHLREPYEINLMEELTLKGVTQYYAFVQERQKVHCLNTLFSKLQINQSIIFCNSTQRVELLAKKITELGYCCYYIHAKMAQAHRNRVFHDFRQGLCRNLVCSDLFTRGIDVQAVNVVINFDFPRMAETYLHRIGRSGRFGHLGIAINLITYEDRFDLHRIEKELGTEIKPIPKVIDPALYVANVGASVGDTCNNSDLNNSANEEGNVSK
binds: all assays above
